Some of the results follow. Further columns of the screen follow, without active or inactive calls. The list favours compounds with an active or inconclusive main result. Words in brackets tell the shape of the fitted curve; partial curves, single points and poor fits give uncertain potencies.
Assay: qHTS Assay for Lipid Storage Modulators in Drosophila S3 Cells;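 for cell number change: cells counted by Cell Tracker Red CMTPX staining in the red channel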
Settings: BODIPY lipid droplet fluorescence, 18-24 h; for cell number change: measured here: cell count max response, cells fed with added oleic acid
Procedure, shortened: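 Drosophila S3 cells got compounds at several concentrations plus oleic acid (400 uM solution). Laser-scanning cytometry with 488 nm excitation read lipid droplets at 500-530 nm and cells at 575-640 nm. Percent activity was relative to 20 uM Triacsin C.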

[1] = measured here: lipid fluorescence (Fed channel) AC50, cells fed with added oleic acid
[2] = measured here: cell number channel AC50, cells fed with added oleic acid

Row | Compound | AC50 [1] | cell number change [%] | AC50 [2]
1 | O=c1c2ccccc2nc2n1CCCN2 | 0.116 µM [falling, full curve, poor fit] | – | –
2 | C=C(Br)Cn1c(CC(C)C)nc2ccccc21 | 3.66 µM [rising, partial curve] | 3.67 | –
3 | OCCCN=c1cc(-c2ccccc2)oc2ccc(Cl)cc12 | – | -35.8 | 29.1 µM [falling, single point]
4 | CCN1CCN(Cc2c(C(=O)N/N=C(\C)c3ccc(Cl)cc3)nnn2-c2nonc2N)CC1 | 7.31 µM [falling, single point] | 0.855 | –
5 | O=C(c1ccccc1F)N(Cc1ccccc1)Cc1ccccc1 | 6.51 µM [rising, single point] | 18.9 | –
6 | N#Cc1c(NCc2ccccc2)ccnc1NCc1cccnc1 | 29.1 µM [falling, single point] | -18.7 | –
7 | Cc1csc(SCC(=O)NCCc2ccc(Cl)cc2)n1 | 3.66 µM [falling, single point] | 50.1 | 6.51 µM [falling, single point]
8 | CC(=O)c1ccc(OCC(=O)N2CCCC(Nc3ccc(C)c(C)c3)C2)cc1 (centres undefined) | – | 10.3 | 0.0651 µM [rising, full curve, poor fit]
9 | Cc1ccc(N(C(=O)C2CCCC2)C2C=CS(=O)(=O)C2)cc1 (centres undefined) | 0.731 µM [falling, single point] | -55.8 | 0.116 µM [falling, single point]
10 | CC1CC(C)CN(C(=O)COC(=O)c2cccc(S(=O)(=O)N(C)c3ccccc3)c2)C1 (centres undefined) | – | 10.5 | –
11 | COC(=O)c1ccc(C)c(NC(=O)Cc2coc3cc(OC)ccc23)c1 | – | -18.3 | –
12 | Cc1ccc(N2C(=O)CC2(C#N)c2ccc(OCc3ccccc3)cc2)cc1 (centres undefined) | 6.51 µM [falling, single point] | – | –
13 | CC1CNc2c(cccc2S(=O)(=O)N[C@@H](CCCN=C(N)N)C(=O)N2CC[C@@H](C)C[C@@H]2C(=O)O)C1 (some centres undefined) | 0.00411 µM [rising, full curve, poor fit] | – | –
14 | COc1ccccc1CCNCc1ccc(OC)c(OCc2ccccc2)c1 | 29.1 µM [falling, single point] | -55.9 | 29.1 µM [falling, single point]
15 | CS(=O)(=O)CCC(C(=O)OCc1ccc(Cl)cc1)N1C(=O)c2ccccc2C1=O (centres undefined) | 0.058 µM [rising, full curve, poor fit] | 6.25 | –
16 | COc1ccc(NC(=O)c2cccc(S(=O)(=O)N3CCN(c4ccccc4)CC3)c2)c(OC)c1 | 0.00517 µM [falling, full curve, poor fit] | -14.1 | 0.00517 µM [falling, full curve, poor fit]
17 | Cc1c(C(=O)N2CCN(C/C=C/c3ccccc3)CC2)oc2c(F)cccc12 | 3.66 µM [falling, single point] | -0.205 | –
18 | Cc1occc1-c1nnc(SCC(=O)NC2CCCC2)n1-c1ccccc1 | 6.51 µM [rising, single point] | 17.6 | –
19 | CCN(c1ccccc1)S(=O)(=O)c1cccc(C(=O)N(C)CCOc2ccccc2)c1 | – | – | 6.51 µM [rising, single point]
20 | O=C(COc1ccc(Cl)cc1)NC1CC1 | – | 8.67 | –
21 | O=C(Nc1ccc(Br)cn1)c1ccc(Cl)s1 | – | 17.8 | –

Row | Compound | AC50 [1] | cell number change [%] | AC50 [2]
22 | CC(=O)Nc1ccc(S(=O)(=O)NCC(=O)OCC(=O)NC(=O)C2CCCCC2)cc1 | 0.0082 µM [falling, full curve, poor fit] | -21.7 | –
23 | O=c1c2c(-c3ccco3)csc2nc(SCc2cn3cccnc3n2)n1-c1ccccc1 | – | -3.32 | –
24 | Cc1ccc(NC(=O)CSc2nc(N)c3c4c(sc3n2)CSC(C)(C)C4)cc1 | 3.66 µM [falling, full curve] | -68.9 | 16.4 µM [falling, partial curve]
25 | Nc1nc(SCc2c(F)cccc2Cl)[nH]c(=O)c1-c1ccccc1 | – | 2.38 | –
26 | Cc1ccc2c(c1)C(c1ccc(O)cc1)(c1ccc(O)cc1)C(=O)N2C | – | -17.5 | –
27 | COc1ccc2c(c1)CC(C1(O)C(=O)N(C)c3ccccc31)C2=O (centres undefined) | 18.4 µM [falling, partial curve] | 7.18 | –
28 | CCOC(=O)[C@@H]1[C@H]2COc3cc(OC)ccc3[C@@H]2N2C(=O)N(c3cccc(Cl)c3)C(=O)[C@]12C | – | 16.5 | –
29 | O=C(CCc1ccccc1)Nc1ccc(S(=O)(=O)Nc2nccs2)cc1 | 29.1 µM [falling, single point] | 12.2 | –
30 | O=C(COc1ccc(S(=O)(=O)N2CCOCC2)cc1)NCC1CCCO1 (centres undefined) | 0.731 µM [falling, partial curve, poor fit] | -6.91 | –
31 | O=C(NCCc1ccccc1)c1cccs1 | – | 10.8 | –
32 | COc1ccccc1C(=O)NC(=O)COC(=O)CCOc1cc(C)ccc1C | 29.1 µM [rising, single point] | 2.21 | –
33 | Cc1cc(C(F)(F)F)nn1CC(=O)NNC(=S)NCC(C)C | – | 2.24 | 6.51 µM [falling, single point]
34 | CCOC(=O)C1=C(C)NC(=O)NC1c1c(OC)ccc2ccccc12 (centres undefined) | – | 18.9 | –
35 | Cc1ccc(CN(c2ccc(C(=O)Nc3cccnc3)cc2)S(C)(=O)=O)cc1 | 4.61 µM [rising, single point] | 50.9 | 25.9 µM [rising, partial curve, poor fit]
36 | O=C(Nc1cccc(S(=O)(=O)C(F)F)c1)c1ccc(S(=O)(=O)N2CCCCC2)cc1 | – | -29.2 | 0.0651 µM [falling, full curve, poor fit]
37 | COc1ccc(-c2ccc(-c3nc4ccc(C)cn4c3NC3CCCCC3)cc2OC)cc1 | 3.26 µM [falling, single point] | -66.6 | 16.4 µM [falling, single point]
38 | CCCN(C(=O)CSc1nnc2ccccn12)C1CCS(=O)(=O)C1 (centres undefined) | 20.6 µM [falling, single point] | -29.8 | –
39 | CCCCn1c(N)c(N(CC)C(=O)c2ccc(Cl)c(Cl)c2)c(=O)[nH]c1=O | – | 13.4 | –
40 | Cc1nc2nc3c(c(=O)n2[nH]1)CCC3 | 29.1 µM [falling, single point] | -55 | 0.103 µM [falling, full curve, poor fit]
41 | CC(=O)Nc1nn(C)c2nc3cc(C)ccc3cc12 | 2.91 µM [rising, full curve, poor fit] | 9.38 | –
42 | CC(C)(C)OC(=O)C1C(=O)CC(C)(O)C(C(=O)OC(C)(C)C)C1c1ccco1 (centres undefined) | 16.4 µM [falling, partial curve] | -29.7 | –

Row | Compound | AC50 [1] | cell number change [%] | AC50 [2]
43 | CCN(c1ccc(NC(=O)CN2C(=O)NC3(CCOc4ccccc43)C2=O)cc1)C(C)C (centres undefined) | 6.51 µM [falling, single point] | 7.4 | 0.651 µM [falling, single point]
44 | CC(C)(C)NC(=O)CCN(/N=C/c1ccc([N+](=O)[O-])o1)C1=NS(=O)(=O)c2ccccc21 | 9.2 µM [falling, partial curve] | -8.07 | –
45 | CC(=O)N1CCN(c2ccccc2NC(=O)c2ccc(Br)o2)CC1 | 0.58 µM [rising, single point] | 17.3 | –
46 | CC(=O)ON1C(C)(C)CC(OC(=O)c2ccccc2)CC1(C)C | – | -14.4 | 0.00411 µM [falling, full curve, poor fit]
47 | CCc1cccc(NC(=O)CCc2c(C)nn(-c3ccc(N4CCCCC4)nn3)c2C)c1 | – | -12.2 | –
48 | Cc1ccc(NC(=O)CSc2nc3c(cc2C#N)C(=O)CCC3)cc1S(=O)(=O)N(C)C | – | -14.8 | –
49 | NS(=O)(=O)c1ccc(NC(=O)CN2CCc3ccccc3C2)cc1 | – | 33.2 | 29.1 µM [rising, partial curve, poor fit]
50 | Cc1ccc(C)c(NC(=O)CN(C)C(=O)c2nn(C)c(=O)c3ccccc23)c1 | 0.146 µM [rising, partial curve, poor fit] | – | –
51 | Cc1ccc(N2C(=O)c3ccccc3NC2(C(=O)O)c2ccccc2)cc1Cl (centres undefined) | 29.1 µM [rising, single point] | – | –
52 | COc1cccc(NC(=O)CCNS(=O)(=O)c2cccc3nonc23)c1 | 6.51 µM [falling, single point] | 15.2 | –
53 | CN(CP(=O)(O)CN(C)S(C)(=O)=O)S(C)(=O)=O | 20.6 µM [rising, single point] | 30.8 | –
54 | CC(=O)c1cccc(NC(=O)C(C)OC(=O)Cc2c[nH]c3ccccc23)c1 (centres undefined) | 10.3 µM [rising, partial curve] | 47.9 | 9.2 µM [rising, partial curve]
55 | Cc1ccc(S(=O)(=O)N2CCN(c3cnn(-c4ccccc4)c(=O)c3Cl)CC2)cc1 | 0.651 µM [falling, single point] | -9.24 | –
56 | COC(=O)c1ccccc1NC(=O)C(=O)NCc1ccncc1 | 4.61 µM [rising, full curve, poor fit] | 6.37 | –
57 | C=CCc1ccccc1OCC(O)CNC(=O)c1ccccc1C(=O)O (centres undefined) | 20.6 µM [rising, single point] | 31.1 | 2.06 µM [rising, full curve, poor fit]
58 | CC1CCCCN1C(=O)CCS(=O)(=O)Cc1ccccc1 (centres undefined) | – | 22.1 | –
59 | CC(C)c1nnc(NC(=O)c2cnccn2)s1 | 0.58 µM [falling, single point] | -5.17 | –
60 | COc1ccc(-c2nnc(CSc3nnc(-c4ccncc4)n3C3CCCCC3)o2)cc1OC | 0.326 µM [rising, single point] | 9.55 | –
61 | CCOC(=O)CSc1nc2c(c(=O)[nH]1)C(C)(CC)Cc1ccccc1-2 (centres undefined) | 16.4 µM [falling, single point] | -30.8 | 29.1 µM [falling, single point]

Arranged by molar mass (smallest number first): part of the list above.
Row | Compound | AC50 [1] | cell number change [%] | AC50 [2]
41 | CC(=O)Nc1nn(C)c2nc3cc(C)ccc3cc12 | 2.91 µM [rising, full curve, poor fit] | 9.38 | –
58 | CC1CCCCN1C(=O)CCS(=O)(=O)Cc1ccccc1 (centres undefined) | – | 22.1 | –
42 | CC(C)(C)OC(=O)C1C(=O)CC(C)(O)C(C(=O)OC(C)(C)C)C1c1ccco1 (centres undefined) | 16.4 µM [falling, partial curve] | -29.7 | –
15 | CS(=O)(=O)CCC(C(=O)OCc1ccc(Cl)cc1)N1C(=O)c2ccccc2C1=O (centres undefined) | 0.058 µM [rising, full curve, poor fit] | 6.25 | –
43 | CCN(c1ccc(NC(=O)CN2C(=O)NC3(CCOc4ccccc43)C2=O)cc1)C(C)C (centres undefined) | 6.51 µM [falling, single point] | 7.4 | 0.651 µM [falling, single point]

Reference: PubChem BioAssay AID2685 (National Center for Advancing Translational Sciences (NCATS), 2010)
